Assay results taken from patent publication US9248103B2, “Method for improving water solubility of slightly soluble substance” (Kabushiki Kaisha Sangi, priority 2012, dated 2016).

Experiment: pH of aqueous solution after 60 minutes in dissolution test using distilled water;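 also: Comparative example rows not the inventive coated formulation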
Assay type: physicochemical
Conditions: Lidocaine
Procedure: Moreover, as described above, since the pH of a local portion that is contacted with a poorly-soluble substance is more important than the pH of a solution as a whole, when an acidic substance is dissolved, desired effects can be obtained even though the pH is not extremely high. It is sufficient if a pH adjuster is used such that the pH of an aqueous solution of a substance with improved aqueous solubility becomes pH 8 or less. […] Herein, the pH of an aqueous solution indicates a pH value that is measured 60 minutes after the addition of a target substance to 50 mL of distilled water in an amount 2 times larger than the substance dissolved in 360 minutes. More specifically, the pH of an aqueous solution indicates a pH value that is measured according to [Dissolution test of poorly-soluble substances] in the below-mentioned Examples.
A poorly-soluble substance coated with calcium compound microparticles (a substance with improved aqueous solubility) and a test solution (50 mL) were placed in a 50-mL screw cap centrifuge tube made of glass. From initiation of the test, the mixed solution was stirred with a stirrer having a length of 15 mm. The rotation number of the stirrer was 120 rpm, and all of the tests were conducted in a thermostat at 37±0.5° C. […]

SMILES: CCN(CC)CC(=O)Nc1c(C)cccc1C [7-3, Lidocaine]
- pH at 60 minutes after dissolution: 9.7
